Data published in PMC11808508.
No constants are given. Whether binding was seen depends on the method and setting. Binding seen in cells or lysates may run through a third protein. Sequences can lack the tags named with a protein.

Target: T1, unphospho-PtsNHis (unphosphorylated PtsN with a C-terminal hexahistidine tag) (E. coli) (UniProt P69829)
T1 sequence: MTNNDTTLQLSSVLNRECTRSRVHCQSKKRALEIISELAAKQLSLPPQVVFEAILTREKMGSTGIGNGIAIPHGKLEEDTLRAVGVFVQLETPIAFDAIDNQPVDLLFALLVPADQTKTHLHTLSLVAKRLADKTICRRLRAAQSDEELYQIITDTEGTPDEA
Test: condition: 25 μg of the purified His-tagged protein added to the lysate; pull-down; co-purification: 25 μg purified C-terminally His6-tagged protein added to DDM-solubilised lysate of cells expressing the 3x FLAG tagged protein, Ni-NTA beads, 4 °C, 2.5 h; buffer A (20 mM Tris-Cl pH 8.0, 200 mM NaCl, 10% glycerol, 5 mM BME) with 3 mM DDM; elution with 300 mM imidazole; anti-FLAG and anti-His immunoblots; only the target purified

binding: no binding
B1: DsbB with a C-terminal 3x FLAG tag (disulfide oxidoreductase, inner membrane protein) (protein, UniProt P0A6M2 1-176)
chain: MLRFLNQCSQGRGAWLLMAFTALALELTALWFQHVMLLKPCVLCIYERCALFGVLGAALIGAIAPKTPLRYVAMVIWLYSAFRGVQLTYEHTMLQLYPSPFATCDFMVRFPEWLPLDKWVPQVFVASGDCAERQWDFLGLEMPQWLLGIFIAYLIVAVLVVISQPFKAKKRDLFGR
